The list shows only some results of the screen, not a fair sample: it is rich in T/C values a quarter to a half above the control, in often repeated tests (any T/C) and in doses without a T/C. Further doses and runs are listed elsewhere. T/C: endpoint of the treated group in % of that of the vehicle group. Some entries give survivors of the animals treated and no T/C: the source files T/C as zero there, which appears to mark a toxic dose or a test without result, not a measured value. Some survivor counts are full or nearly so, which does not show that the dose was tolerated: survival well below the control is almost never listed, so the zero probably covers shortened survival too. Survivors were counted at the toxicity check, usually on the fifth day, unless a day is given; later deaths do not show. Schedule codes are those of the source, taken here to give the interval after Q, in days (D) or hours (H), and the number of doses after X. Some entries were tested several times; their values stand side by side, smallest first. Where survival is the endpoint, the PubChem record calls one and a half times the control and up active, and a quarter to a half above the control has no call in these data; cut-offs in other NCI protocols can differ.

This assay deals with CD2F1 mice, ip Colon 26 adenocarcinoma, median survival T/C. Put plainly: NCI In Vivo Anticancer Drug Screen. Data for tumor model Colon 26 Adenocarcinoma (intraperitoneal) in CD2F1 (CDF1) mice. As to conditions: T/C endpoint: median survival time, higher T/C = longer survival. Here is the method:
The antitumor activity of compounds was measured in mice bearing transplantable tumors. Survival or tumor size were measured and the results are expressed as the measurement made in the treated group (T) divided by the measurement made in the vehicle treated control group (C). The tumor model used in this assay is Colon 26 Adenocarcinoma (intraperitoneal) in CD2F1 (CDF1) mice

Where [1] appears, read: dose: 100.0 mg/kg/injection, schedule: Q04DX003 (ip), vehicle: Klucel (hydroxypropylcellulose) (HPC).

Regarding `S=c1nc[nH]c2nc[nH]c12`, the T/C was 128 % of control (dose: 6.25 mg/kg/injection, schedule: Q04DX003 (ip), vehicle: Klucel (hydroxypropylcellulose) (HPC)); 129 % of control (dose: 12.5 mg/kg/injection, schedule: Q04DX003 (ip), vehicle: Klucel (hydroxypropylcellulose) (HPC)); 143 % of control (dose: 25.0 mg/kg/injection, schedule: Q04DX003 (ip), vehicle: Klucel (hydroxypropylcellulose) (HPC)); 131 % of control (dose: 50.0 mg/kg/injection, schedule: Q04DX003 (ip), vehicle: Klucel (hydroxypropylcellulose) (HPC)); 141 % of control under setting [1]. Also, the survivor count reads like this: under setting [1], 10 of 10; (dose: 200.0 mg/kg/injection, schedule: Q04DX003 (ip), vehicle: Klucel (hydroxypropylcellulose) (HPC)) 1 of 10 and 10 of 10; (dose: 400.0 mg/kg/injection, schedule: Q04DX003 (ip), vehicle: Klucel (hydroxypropylcellulose) (HPC)) 10 of 10.

Consider `COC12[C@@H]3N[C@@H]3CN1C1=C(C(=O)C(NCCSSCCNC3=C(C)C(=O)C4=C(C3=O)C(COC(N)=O)[C@]3(OC)C5N[C@@H]5CN43)=C(C)C1=O)[C@@H]2COC(N)=O` (stereo partly drawn), for which the T/C (dose: 6.0 mg/kg/injection, schedule: Q03DX002 (ip), vehicle: other) is 132 % of control. Where the note is “dose: 12.0 mg/kg/injection, schedule: Q01DX005 (ip), vehicle: other”, the survivor count is given as 8 of 8 on day 14.

On to `CC[C@@]1(O)C[C@H](OC2CC(N(C)C)C(OC3CC(O)C(OC4CCC(=O)C(C)O4)C(C)O3)C(C)O2)c2c(cc3c(c2O)C(=O)c2c(O)cccc2C3=O)[C@H]1C(=O)OC` (stereo partly drawn), for which the survivor count (dose: 26.0 mg/kg/injection, schedule: Q07DX003 (iv), vehicle: water) is on record as 10 of 10.

On to `CCC1(O)CC(OC2CC(N(C)C)C(OC3CC(O)C(OC4CCC(=O)C(C)O4)C(C)O3)C(C)O2)c2c(cc3c(c2O)C(=O)c2c(O)ccc(O)c2C3=O)C1C(=O)OC` (stereo not drawn), for which, for the setting “dose: 6.0 mg/kg/injection, schedule: Q04DX003 (ip), vehicle: saline with Tween-80”, the T/C was 133 % of control.

Regarding `CCSC(=O)N1c2ccc(OC)cc2C=CC1C#N` (stereo not drawn), the survivor count (dose: 2800.0 mg/kg/injection, schedule: Q04DX002 (ip), vehicle: saline with Tween-80) is 10 of 10.

In the case of `CC1OC(=O)C(C(C)C)NC(=O)C(C(C)C)OC(=O)C(C(C)C)NC(=O)C(C)OC(=O)C(C(C)C)NC(=O)C(C(C)C)OC(=O)C(C(C)C)NC(=O)C(C)OC(=O)C(C(C)C)NC(=O)C(C(C)C)OC(=O)C(C(C)C)NC1=O` (stereo not drawn), the survivor count (dose: 24.0 mg/kg/injection, schedule: Q04DX003 (ip), vehicle: Klucel (hydroxypropylcellulose) (HPC)) was 3 of 10.

As to `C1OC1CN1CCN(CC2CO2)CC1` (stereo not drawn), the T/C was 134 and 144 % of control (dose: 12.5 mg/kg/injection, schedule: Q04DX003 (ip), vehicle: saline); 149 % of control (dose: 25.0 mg/kg/injection, schedule: Q04DX003 (ip), vehicle: saline). The survivor count (dose: 100.0 mg/kg/injection, schedule: Q04DX003 (ip), vehicle: saline) is 4 of 10.

In the case of `CC(=O)OC1C2(CC3N4C(=O)C5(CO)SSC4(CC31O)C(=O)N5C)OC(C)C(C)(C)C2=O` (stereo not drawn), the survivor count is on record as 0 of 10 (dose: 10.0 mg/kg/injection, schedule: Q04DX002 (ip), vehicle: saline) and 1 of 10 (dose: 20.0 mg/kg/injection, schedule: Q04DX002 (ip), vehicle: saline).

On to `COC(=O)C(F)C(Br)C(=O)OC` (stereo not drawn), for which the survivor count is, setting by setting: (dose: 100.0 mg/kg/injection, schedule: Q04DX003 (ip), vehicle: saline with Tween-80) 6 of 10; (dose: 200.0 mg/kg/injection, schedule: Q04DX003 (ip), vehicle: saline with Tween-80) 0 of 10.

Regarding `Cc1c2oc3c(C)c(N)cc(C(=O)NC4C(=O)NC(C(C)C)C(=O)N5CCCC5C(=O)N(C)CC(=O)N(C)C(C(C)C)C(=O)OC4C)c3nc-2c(C(=O)NC2C(=O)NC(C(C)C)C(=O)N3CCCC3C(=O)N(C)CC(=O)N(C)C(C(C)C)C(=O)OC2C)c(N)c1=O` (stereo not drawn), the survivor count was 3 of 8 (dose: 2000.0 micrograms/kg/injection, schedule: Q01DX001 (ip), vehicle: saline + alcohol) and 0 of 8 (dose: 4000.0 micrograms/kg/injection, schedule: Q01DX001 (ip), vehicle: saline + alcohol).

Consider `O=C1c2ccccc2C(=O)c2c(NCCNCCO)ccc(O)c21`, for which the survivor count by setting is: (dose: 30.0 mg/kg/injection, schedule: Q01DX009 (ip), vehicle: acid diluted with saline) 10 of 10; (dose: 32.0 mg/kg/injection, schedule: Q01DX009 (ip), vehicle: acid diluted with saline) 10 of 10.

Consider `CC(=O)Oc1ccccc1C(=O)O`, for which the survivor count (dose: 144.0 mg/kg/injection, schedule: Q04DX002 (ip), vehicle: saline with Tween-80) is 10 of 10; the survivor count (dose: 288.0 mg/kg/injection, schedule: Q04DX002 (ip), vehicle: saline with Tween-80) is reported as 8 of 10; the survivor count (dose: 576.0 mg/kg/injection, schedule: Q04DX002 (ip), vehicle: saline with Tween-80) is on record as 8 of 10; the survivor count (dose: 1152.0 mg/kg/injection, schedule: Q04DX002 (ip), vehicle: saline with Tween-80) is 5 of 10.

Regarding `CN1C(=O)NC(c2ccc(Cl)cc2)(c2ccc(Cl)cc2)C1=O`, the survivor count reads like this: (dose: 100.0 mg/kg/injection, schedule: Q04DX002 (ip), vehicle: distilled water + Tween-80) 10 of 10; (dose: 200.0 mg/kg/injection, schedule: Q04DX002 (ip), vehicle: distilled water + Tween-80) 9 of 10; (dose: 400.0 mg/kg/injection, schedule: Q04DX002 (ip), vehicle: distilled water + Tween-80) 7 of 10.

Turning to `CN(C)/N=N/c1nc[nH]c1C(N)=O`, the T/C (dose: 200.0 mg/kg/injection, schedule: Q04DX003 (ip), vehicle: carboxymethylcellulose (CMC)) is 136 % of control.

The record behind these values is PubChem BioAssay AID210 (DTP/NCI, 2004).
